# Among all 320,000 compounds or so, about 22,000 (6.9%) were called active. This list was built around the results that the source calls inconclusive (neither active nor inactive); the mix of calls is not that of the screen. The call rests on the fitted dose curve; in most records, active means well fitted inhibition curve with a large enough effect; inconclusive means small, poorly fitted or top-dose-only effect, or another doubt; inactive means no such curve, though single readings can be large or run the other way. Where the call is inconclusive, the potency comes from a doubtful curve fit.
# Assay: Primary qHTS for delayed death inhibitors of the malarial parasite plastid, 96 hour incubation
# Settings: P. falciparum luciferase reporter growth; series mostly up to 28.7 µM; activity change, negative = inhibition: at the top concentration
# Outline: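 Cell-based qHTS: luciferase-tagged P. falciparum in erythrocytes (2% hematocrit, 0.05% parasitemia final) incubated with compounds for 96 hours, 37 C, 5% CO2; luciferase detection reagent then added and luminescence measured.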
# On the % scale 0 is the no-effect control and ±100 the full control effect; potency means the concentration at half of the fitted maximal effect.
SMILES,"activity change, negative = inhibition",Potency
COc1cc(OC)cc(C(=O)NC(C(=O)Nc2ccc3c(c2)OCO3)C(C)C)c1 (stereo unspecified),inactive: -64.7%,–
CS(=O)(=O)Cc1nc2ccccc2oc1=O,–,active: 6.57 µM
CCC(C)N(C(=O)COC(=O)c1cc([N+](=O)[O-])ccc1N)C1CCS(=O)(=O)C1 (stereo unspecified),–,"inconclusive: 18.5 µM [inhibitor, single point]"
COC(=O)c1ccc(C(=O)N(Cc2ccccc2)c2ccccc2)cc1,inactive: -21.6%,–
CC(=O)Nc1ccc(-c2nnc(SCC(=O)c3ccc4c(c3)Cc3ccccc3-4)n2C)cc1,–,"inconclusive: 0.928 µM [inhibitor, partial curve, poor fit]"
CSc1ccc(NC(=O)NCCCN2CCC(Cc3ccccc3)CC2)cc1,–,"inconclusive: 11.7 µM [inhibitor, partial curve, poor fit]"
O=C(CSc1nnnn1C1CCCCC1)Nc1nc2c(s1)CCCC2,inactive: -17.2%,–
Cc1cc(N2CCCCC2)nc(N2CCCCC2)n1,–,"inconclusive: 9.28 µM [inhibitor, single point]"
O=C(Cc1ccccc1)Nc1nnc(-c2ccco2)s1,–,"inconclusive: 18.5 µM [inhibitor, single point]"
NS(=O)(=O)c1ccc(NC(=O)c2ccc(COc3ccccc3)o2)cc1,inactive: 65.4%,–
Cc1nc(CSc2ccccc2)cc(=O)[nH]1,inactive: -18.5%,–
OCC1(Cc2ccc(F)cc2)CCCN(Cc2ccc(F)cc2Cl)C1 (stereo unspecified),–,"inconclusive: 16.5 µM [inhibitor, single point]"
COc1cccc(NC(=O)Cn2nnc(C(=O)Nc3ccccc3)c2N)c1,–,"inconclusive: 4.15 µM [inhibitor, partial curve]"
CCC(C)(C)NC(=O)CN(C(=O)c1ccc(N2CCCC2)nc1)c1ccc(F)cc1,–,"inconclusive: 18.5 µM [inhibitor, single point]"
CCN(C(=O)/C=C/c1ccc(OC)cc1)C1CCS(=O)(=O)C1 (stereo unspecified),–,"inconclusive: 0.0294 µM [inhibitor, full curve, poor fit]"
COc1ccc(C2(C)NC(=O)N(Cc3cc(Cl)cc4c3OCOC4)C2=O)cc1OC (stereo unspecified),–,"inconclusive: 11.7 µM [inhibitor, single point]"
COc1ccc(NC(=O)CCN2CCN(S(=O)(=O)c3cc(Cl)ccc3OC)CC2)cc1,–,"inconclusive: 0.415 µM [inhibitor, full curve, poor fit]"
Cc1ccccc1Nc1nc(N)nc(COC(=O)c2ccc(S(=O)(=O)N(C)C)cc2)n1,–,"inconclusive: 0.657 µM [inhibitor, partial curve, poor fit]"
CCN(CC(=O)NCc1ccc(Cl)cc1)CC(=O)Nc1ccc(C(N)=O)cc1,–,"inconclusive: 16.5 µM [inhibitor, single point]"
O=C(N/N=C/c1ccc(-c2ccc(Cl)c(C(=O)O)c2)o1)c1cc2c(ccc3ccccc32)o1,inactive: -1.28%,–
CC(C)C(OC(=O)c1cccs1)C(=O)NC1CCCCC1 (stereo unspecified),–,"inconclusive: 18.5 µM [inhibitor, single point]"
CSc1cccc(NC(=O)CN(C)S(=O)(=O)c2cnc[nH]2)c1,–,"inconclusive: 1.31 µM [inhibitor, full curve, poor fit]"
C=CCNc1nc(NCc2ccco2)nc(OCC)n1,inactive: 6.36%,–
CCOC(=O)CNC(=O)c1cnc(Nc2ccccc2OC)c2ccccc12,–,"inconclusive: 0.208 µM [inhibitor, full curve, poor fit]"

SMILES,"activity change, negative = inhibition",Potency
O=C1ON=C(c2ccccc2)/C1=C\c1ccco1,inactive: 8.64%,–
Cc1cc(N2CCCCCC2)nc2ccccc12,–,"inconclusive: 11.7 µM [inhibitor, single point]"
COC(=O)C(Cc1ccccc1)NC(=O)c1cc(S(=O)(=O)N(C)C)ccc1Cl (stereo unspecified),inactive: 2.55%,–
CC(C)(C)c1cc(NCc2ccccn2)n2ncc(-c3ccc(Cl)cc3)c2n1,–,"inconclusive: 1.65 µM [inhibitor, full curve, poor fit]"
O=C1CN(C(=O)CSc2nc3ccccc3n2CCc2ccccc2)c2ccccc2N1,–,"inconclusive: 18.5 µM [inhibitor, single point]"
COc1ccc(OCC(O)Cn2cnc(-c3ccc(Br)cc3)c2)cc1 (stereo unspecified),–,"inconclusive: 18.5 µM [inhibitor, single point]"
COC(=O)c1ccc(-c2sc3nc(N4CCOCC4)c4c(c3c2N)CCCC4)o1,–,active: 9.28 µM
Cc1ccc2oc(=O)n(CCOc3ccccc3C)c2c1,inactive: 8.58%,–
Nc1ccc(Br)cc1-c1nc2ccccc2[nH]c1=O,inactive: 1.53%,–
CC1(C)Oc2ccc(C(=O)Nc3ccccc3F)cc2N(CC(=O)N2CCOCC2)C1=O,–,"inconclusive: 10.4 µM [inhibitor, single point]"
O=c1c2c3c(sc2nc2n1CCCC2)CCCC3,inactive: -96.4%,–
CCOC(=O)N1CCN(C(=O)c2ccc3c(=O)n(CC4CCCO4)c(=S)[nH]c3c2)CC1 (stereo unspecified),–,"inconclusive: 16.5 µM [inhibitor, single point]"
CCOC(=O)CCC(NC(=O)CCCCC(=O)NC(CCC(=O)OCC)C(=O)OCC)C(=O)OCC (stereo unspecified),–,"inconclusive: 18.5 µM [inhibitor, single point]"
CCc1ccc(C2CC(c3ccccc3)Nc3nc(N)nn32)cc1 (stereo unspecified),–,active: 1.85 µM
O=C1CCN(Cc2ccccc2)CCN1[C@H](CSc1ccccc1)c1ccccc1,–,"inconclusive: 0.131 µM [inhibitor, single point]"
COCCCN=C1NN=C(c2cc(C)n(-c3ccccc3)c2C)CS1,–,active: 8.28 µM
O=C(C[n+]1ccccc1)Nc1nc2ccccc2s1,inactive: -11.1%,–
CCOC(=O)c1ccc(NC(=O)C2(c3ccc(OC)cc3)CCOCC2)cc1,inactive: 69.5%,–
COCCN(C(=O)COC(=O)c1cc(C)n(-c2ccccc2)c1C)c1c(N)n(Cc2ccccc2)c(=O)[nH]c1=O,–,"inconclusive: 13.1 µM [inhibitor, partial curve, poor fit]"
CCN(CC)S(=O)(=O)c1ccc(O)c(C(=O)OCC(=O)N2c3ccccc3CC2C)c1 (stereo unspecified),inactive: 49.9%,–
CCC(=O)C1CCCN(C(=O)CCc2nnc(-c3ccc4c(c3)OCO4)o2)C1 (stereo unspecified),–,"inconclusive: 18.5 µM [inhibitor, single point]"
Cc1ccc(NC(=O)Cn2c(O)c(N=NS(=O)(=O)c3ccc(C)cc3)c3ccccc32)cc1,–,"inconclusive: 10.4 µM [inhibitor, single point]"
CCCCCOc1ccc(N2C(=O)C3C4C=CC(C3C2=O)N(C)C4=O)cc1 (stereo unspecified),–,"inconclusive: 16.5 µM [inhibitor, single point]"
COc1ccccc1-c1ccc(SCc2ccccc2)nn1,–,"inconclusive: 18.5 µM [inhibitor, partial curve, poor fit]"

# Ordered by count of non-hydrogen atoms (largest number first): some entries from above
SMILES,"activity change, negative = inhibition",Potency
COCCN(C(=O)COC(=O)c1cc(C)n(-c2ccccc2)c1C)c1c(N)n(Cc2ccccc2)c(=O)[nH]c1=O,–,"inconclusive: 13.1 µM [inhibitor, partial curve, poor fit]"
CCOC(=O)CCC(NC(=O)CCCCC(=O)NC(CCC(=O)OCC)C(=O)OCC)C(=O)OCC (stereo unspecified),–,"inconclusive: 18.5 µM [inhibitor, single point]"
Cc1ccc(NC(=O)Cn2c(O)c(N=NS(=O)(=O)c3ccc(C)cc3)c3ccccc32)cc1,–,"inconclusive: 10.4 µM [inhibitor, single point]"
CC1(C)Oc2ccc(C(=O)Nc3ccccc3F)cc2N(CC(=O)N2CCOCC2)C1=O,–,"inconclusive: 10.4 µM [inhibitor, single point]"
CCOC(=O)N1CCN(C(=O)c2ccc3c(=O)n(CC4CCCO4)c(=S)[nH]c3c2)CC1 (stereo unspecified),–,"inconclusive: 16.5 µM [inhibitor, single point]"
O=C1CCN(Cc2ccccc2)CCN1[C@H](CSc1ccccc1)c1ccccc1,–,"inconclusive: 0.131 µM [inhibitor, single point]"
COC(=O)c1ccc(-c2sc3nc(N4CCOCC4)c4c(c3c2N)CCCC4)o1,–,active: 9.28 µM
CCC(=O)C1CCCN(C(=O)CCc2nnc(-c3ccc4c(c3)OCO4)o2)C1 (stereo unspecified),–,"inconclusive: 18.5 µM [inhibitor, single point]"
CCCCCOc1ccc(N2C(=O)C3C4C=CC(C3C2=O)N(C)C4=O)cc1 (stereo unspecified),–,"inconclusive: 16.5 µM [inhibitor, single point]"
COCCCN=C1NN=C(c2cc(C)n(-c3ccccc3)c2C)CS1,–,active: 8.28 µM
CCc1ccc(C2CC(c3ccccc3)Nc3nc(N)nn32)cc1 (stereo unspecified),–,active: 1.85 µM
COc1ccccc1-c1ccc(SCc2ccccc2)nn1,–,"inconclusive: 18.5 µM [inhibitor, partial curve, poor fit]"
Cc1ccc2oc(=O)n(CCOc3ccccc3C)c2c1,inactive: 8.58%,–
O=C(C[n+]1ccccc1)Nc1nc2ccccc2s1,inactive: -11.1%,–
O=c1c2c3c(sc2nc2n1CCCC2)CCCC3,inactive: -96.4%,–

# Among those listed so far, two contain two or more sulfur atoms.
SMILES,"activity change, negative = inhibition",Potency
O=C(CSc1nnnn1C1CCCCC1)Nc1nc2c(s1)CCCC2,inactive: -17.2%,–
CSc1cccc(NC(=O)CN(C)S(=O)(=O)c2cnc[nH]2)c1,–,"inconclusive: 1.31 µM [inhibitor, full curve, poor fit]"

# (more compounds)

SMILES,"activity change, negative = inhibition",Potency
CCn1c2ccccc2c2cc(NC(=O)CSc3nnc(C4CC4)n3Cc3ccco3)ccc21,inactive: 10.2% [at 5.75 µM],–
CCOc1ccc(CCNC(=O)CCC(=O)N2CCSc3ccccc32)cc1OCC,inactive: -14.3%,–
COc1cc(OC)cc(C(=O)NCCSCc2ccco2)c1,–,"inconclusive: 9.28 µM [inhibitor, partial curve, poor fit]"
S=C(Nc1cccc(Br)c1)c1ccccc1,–,"inconclusive: 14.7 µM [inhibitor, partial curve]"
Cc1ccccc1NC(=O)CSC(N)=O,–,"inconclusive: 10.4 µM [inhibitor, partial curve, poor fit]"
O=C(Cn1ncc2c1-c1ccccc1OC2)N1CCN(c2ccccn2)CC1,–,"inconclusive: 18.5 µM [inhibitor, single point]"
CN(C)CCNC(=O)c1cc2cc(Br)ccc2oc1=O,inactive: 31.7%,–
Cc1cccc(N2CCN(C(=O)Cn3cnc4c3c(=O)n(C)c(=O)n4C)CC2)c1C,–,"inconclusive: 18.5 µM [inhibitor, single point]"
Cc1cc(Cl)ccc1OC(C)C(=O)NC(C)C1CCCO1 (stereo unspecified),inactive: 3.78%,–
C=C(C)Cn1c(=O)c2c(nc3n2CC(C)CN3Cc2ccccc2)n(C)c1=O (stereo unspecified),–,"inconclusive: 1.65 µM [inhibitor, full curve]"
COc1cccc(CNC(=O)Cn2c(=O)oc3ccccc32)c1OC,–,"inconclusive: 10.4 µM [inhibitor, single point]"
COc1ccc(Cl)cc1NC(=O)C1CCCO1 (stereo unspecified),inactive: 15.1%,–
O=C(Cc1ccccc1[N+](=O)[O-])NCCCc1ccccc1,–,"inconclusive: 18.5 µM [inhibitor, single point]"
O=C(Nc1ccc(Cl)cn1)c1cccc(F)c1,inactive: 147%,–
CCOC(=O)N1CCC(N(CCN(C)C)C(=S)Nc2ccc(F)c(Cl)c2)CC1,inactive: -27.6%,–
C=CCOc1nc2c(c(=O)n(C)c(=O)n2C)n1Cc1ccc(Cl)cc1Cl,–,"inconclusive: 18.5 µM [inhibitor, partial curve, poor fit]"
O=C(/C=C/c1ccco1)N1CCN(S(=O)(=O)c2cccs2)CC1,–,"inconclusive: 13.1 µM [inhibitor, partial curve, poor fit]"
Cc1cccc(NC(=O)CNC(=O)CN2C(=O)NC3(CCCc4ccccc43)C2=O)c1C (stereo unspecified),inactive: 19.2%,–
COc1cc2[nH]c(C(=O)N3CCC(Cc4ccccc4)CC3)cc2c(OC)c1OC,–,active: 3.7 µM
CN(CC(=O)NCc1cccnc1)S(=O)(=O)c1cc(Cl)ccc1Cl,–,"inconclusive: 2.94 µM [inhibitor, partial curve, poor fit]"
O=[N+]([O-])c1cccc(S(=O)(=O)N2CCN(S(=O)(=O)N3CCCCCC3)CC2)c1,–,"inconclusive: 18.5 µM [inhibitor, single point]"
Cc1ccc2nc(-c3ccncc3)cc(C(=O)Nc3ccncc3)c2c1,–,"inconclusive: 1.47 µM [inhibitor, full curve]"
Cc1ccc(-c2nc(CS(=O)CC(=O)N3CCN(c4ccc(F)cc4)CC3)c(C)o2)cc1 (stereo unspecified),–,"inconclusive: 13.1 µM [inhibitor, single point]"

# Reference: PubChem BioAssay AID504834 (National Center for Advancing Translational Sciences (NCATS), 2011)
